Publication doi:10.1101/2023.01.18.524494

Columns and labels:
Test in all cases: cryo-EM structure
[1] = molecular target: Kluyveromyces lactis ribosomal protein uS3 (Kluyveromyces lactis (endogenous))
[2] = molecular target: Kluyveromyces lactis ribosomal protein eS10 (Kluyveromyces lactis (endogenous))
[3] = molecular target: Kluyveromyces lactis ribosomal protein uS10 (Kluyveromyces lactis (endogenous))

Measured: binding

B1: Saccharomyces cerevisiae eukaryotic initiation factor 4B (protein, UniProt P34167 1-436)
chain: MAPPKKTVKKMDLTSFLNDDTFGSSWAEEDVDLNKITIPIETANANTIPLSELAHAKNNSNNTRSGGFGGSFGGRSRLDPALGGGSSDRREEYPVPDAPPYRAVINNIPWDITPEGVQAWVEDGLVKPEAVEEVVLPKNLRDPTRLKGNAFVTLKERADLVAVLKFNGTKLNERTVYVSVAAPRRGGGADVDWSSARGSNFQGDGREDAPDLDWGAARGSNFRGPRREREEVDIDWTAARGSNFQGSSRPPRREREEVDIDWSAARGSNFQGSSRPPRREREEPDIDWSAARGSNFQSSSRPPRREREEPDIDWSAARGSNFQSSSRPPRREREKEEPALDWGAARGAQFGKPQQTKNTYKDRSLTNKKTTDEQPKIQKSVYDVLRTEDDDEDEEAEKQNGDAKENKVDAAVEKLQDKTAQLTVEDGDNWEVVGKK
binds: all assays above

These are yes or no findings as the source states them, for the method shown. Binding can be weak; no strength is given. Tags and fused reporters may be left off the sequences shown.
